Measurements published in patent US20140137274A1, “INDUCED MALIGNANT STEM CELLS” (LSIP, LLC, priority 2011, published 2014).

Each substance was assayed on endogenous cancer-related proteins (assay: protein identification analysis (iTRAQ labeling, MALDI TOF/MS)). Conditions: protein amount in cc4-d relative to ncc4 (colon non-cancer tissues, negative control).
Set-up: species or system human

Row | Substance | Relative quantity (test vs control) Ratio cc4-d/ ncc4
1 | heat shock protein HSP 90-beta [Homo sapiens] | 1.044
2 | enolase 1 variant [enolase 1 variant [Homo sapiens]] | 1.012
3 | Annexin A2 [Annexin A2 [Homo sapiens]] | 0.848
4 | serum albumin preproprotein [Homo sapiens] | 0.4545
5 | heat shock 70 kDa protein 8 isoform 1 variant [Homo sapiens] | 1.527
6 | PREDICTED: tubulin alpha-1A chain isoform 2 [Xenopus (Silurana) tropicalis] | 0.9819
7 | Tubulin, beta 2C [Tubulin, beta 2C [Homo sapiens]] | 0.7019
8 | hemoglobin subunit beta [hemoglobin subunit beta [Homo sapiens]] | 0.4811
9 | glyceraldehyde-3-phosphate dehydrogenase [Homo sapiens] | 1.144
10 | tumor rejection antigen (gp96) 1 [Homo sapiens] | 0.8476
11 | spectrin, alpha, non-erythrocytic 1 (alpha-fodrin) variant [Homo sapiens] | 1.018
12 | LGALS3 [LGALS3 [Homo sapiens]] | 1.402

Same assay, conditions: protein amount in cc4 relative to ncc4 (colon non-cancer tissues, negative control)

Row | Substance | Relative quantity (test vs control) Ratio cc4/ ncc4
13 | heat shock protein HSP 90-beta [Homo sapiens] | 1.161
14 | enolase 1 variant [enolase 1 variant [Homo sapiens]] | 1.199
15 | Annexin A2 [Annexin A2 [Homo sapiens]] | 0.7956
16 | serum albumin preproprotein [Homo sapiens] | 0.6119
17 | heat shock 70 kDa protein 8 isoform 1 variant [Homo sapiens] | 1.086
18 | PREDICTED: tubulin alpha-1A chain isoform 2 [Xenopus (Silurana) tropicalis] | 1.129
19 | Tubulin, beta 2C [Tubulin, beta 2C [Homo sapiens]] | 0.9776
20 | hemoglobin subunit beta [hemoglobin subunit beta [Homo sapiens]] | 1.496
21 | glyceraldehyde-3-phosphate dehydrogenase [Homo sapiens] | 1.006
22 | tumor rejection antigen (gp96) 1 [Homo sapiens] | 1.098
23 | spectrin, alpha, non-erythrocytic 1 (alpha-fodrin) variant [Homo sapiens] | 0.8716
24 | LGALS3 [LGALS3 [Homo sapiens]] | 0.7576
